PubChem BioAssay AID504786 | Drosophila RNAi Screening Center – 2011
Assay: 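Fly genes required for HIF-dependent transcription when hypoxia is mimicked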 (primary screen). System: Drosophila S2 cells with a stable HIF luciferase reporter. Reagents: long dsRNA against Drosophila genes, about 0.2 µg dsRNA per well of a 384-well plate. Time to read-out: three days of knock-down, then 20 h of DFO before reading. Challenge: desferrioxamine (DFO) at 100 µM, an iron chelator that mimics hypoxia, for 20 h. Measurement: 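HIF reporter luminescence in cells given 100 µM DFO for 20 h, using the mouse ldh-a hypoxia-response element, scored as per-plate z-scores; higher means greater loss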. Reading the numbers: z-score: higher = stronger loss of HIF reporter signal.
The screen tested about 21,000 reagents; shown is a random part of those that have a named target and a result. 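Primary screen; positive scores mean lost reporter signal, so the sign may be inverted from the usual convention.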 A plus sign joins genes that one reagent is predicted to hit. Not all columns of the deposit are shown.

gene | DRSC id | z-score, replicate 1
mthl15 (methuselah-like 15) | DRSC01120 | -0.2
Sp1 | DRSC17622 | -0.2
Sp1 | DRSC18717 | -0.3
Pos (Poseidon) | DRSC15415 | -0.3
gpp (grappa) | DRSC12515 | 0.7
gpp (grappa) | DRSC12516 | 0.1
CG6153 | DRSC02935 | -0.4
CG32488 | DRSC08549 | -0.8
RpS18 (Ribosomal protein S18) | DRSC07540 | 7.8
shop (shopper) | DRSC20030 | -0.3
CG11403 | DRSC18532 | 0
CG7394 | DRSC10835 | 0.3
CG1631 | DRSC20535 | -0.1
CG15208 | DRSC19654 | 0
ppk25 (pickpocket 25) | DRSC04973 | -0.4
Pex7 (Peroxin 7) | DRSC10651 | -0.2
CG4461 | DRSC10423 | -0.1
CG31606 | DRSC01012 | -0.4
CG6380 | DRSC02950 | -0.2
CG17118 | DRSC02579 | 0
CG10559 | DRSC14255 | -0.4
CG12099 | DRSC08253 | -0.2
Vtld + CG42529 | DRSC10102 | -0.3
Prat2 (Phosphoribosylamidotransferase 2) | DRSC09692 | -0.2
ninaG | DRSC16102 | -0.4
qtc (quick-to-court) | DRSC02364 | -0.2
qtc (quick-to-court) | DRSC02365 | -0.2
CG9593 | DRSC16508 | -0.5
beat-IIb (beaten path IIb) | DRSC13219 | -0.2
beat-IIb (beaten path IIb) | DRSC14816 | -0.4
beat-IIb (beaten path IIb) | DRSC15546 | -0.1
CG2310 | DRSC15438 | -0.2
CG9970 | DRSC08644 | -0.3
Tsp42Eb + CG30160 | DRSC04961 | -0.3
Tsp42Eb + CG30160 | DRSC06791 | -0.3
cold (coiled) | DRSC00538 | -0.3
nonC (no-on-and-no-off transient C) | DRSC18366 | -0.1
nonC (no-on-and-no-off transient C) | DRSC18367 | -0.2
Elp5 (Elongator complex protein 5) | DRSC08547 | -0.3
CG15914 | DRSC19739 | -0.2
nxf4 (nuclear export factor 4) | DRSC12548 | -0.2
nvy (nervy) | DRSC04705 | -0.2
Cyp6d5 (Cytochrome P450 6d5) | DRSC16634 | -0.3
CG12531 | DRSC19466 | -0.2
Coq6 (Coenzyme Q6) | DRSC03040 | -0.3
CG12992 | DRSC19512 | -0.3
tth (toothrin) | DRSC19435 | -0.4

Quoted from above, 5 entries:
gene | DRSC id | z-score, replicate 1
CG9970 | DRSC08644 | -0.3
Tsp42Eb + CG30160 | DRSC04961 | -0.3
Tsp42Eb + CG30160 | DRSC06791 | -0.3
cold (coiled) | DRSC00538 | -0.3
nonC (no-on-and-no-off transient C) | DRSC18366 | -0.1

Further reagents follow.
gene | DRSC id | z-score, replicate 1
Cyp6g1 (Cytochrome P450 6g1) | DRSC07386 | -0.2
Atg7 (Autophagy-related 7) | DRSC05741 | -0.1
Atg7 (Autophagy-related 7) | DRSC06937 | -0.4
CG42565 | DRSC04154 | -0.4
spri (sprint) | DRSC17846 | -0.1
spri (sprint) | DRSC17984 | -0.3
spri (sprint) | DRSC17985 | -0.1
spri (sprint) | DRSC17986 | -0.3
spri (sprint) | DRSC17988 | -0.2
spri (sprint) | DRSC17989 | -0.3
RabX6 | DRSC08223 | -0.1
CG42397 | DRSC09147 | -0.3
FLASH (FLICE-associated huge protein) | DRSC06872 | 0.6
Gnpnat (Glucosamine-phosphate N-acetyltransferase) | DRSC15405 | -0.3
Trf5 (TBP-related factor 5) | DRSC00412 | -0.2
brat (brain tumor) | DRSC03497 | -0.2
pinta | DRSC14698 | -0.3
CG6293 | DRSC16011 | -0.3
Dhod (Dihydroorotate dehydrogenase) | DRSC16647 | -0.2
CG4907 | DRSC15673 | -0.1
CG31955 | DRSC00285 | -0.1
CG15169 | DRSC02470 | -0.3
csul (capsuleen) | DRSC07599 | -0.4
papi | DRSC00693 | -0.3
CG17237 | DRSC00491 | 0
Dlip1 (Dorsal interacting protein 1) | DRSC18460 | -0.3
CG34249 (retired record) | DRSC09431 | -0.2
Fatp3 (Fatty acid transport protein 3) | DRSC04366 | -0.1
CG10822 | DRSC06005 | -0.3
Rb97D (Ribonuclear protein at 97D) | DRSC16815 | -0.4
wrd (well-rounded) | DRSC16337 | 3
wrd (well-rounded) | DRSC16344 | -1.1
RpL40 (Ribosomal protein L40) | DRSC00782 | 4.9
CG1695 | DRSC20538 | -0.4
vimar (visceral mesodermal armadillo-repeats) | DRSC05026 | -0.3
CG13676 | DRSC10035 | -0.1
